Measured values published in PubChem BioAssay AID485349 (National Center for Advancing Translational Sciences (NCATS), 2010).
The campaign covered roughly 320,000 compounds. About 620 (0.19%) were called active. The inconclusive results got no clear call from the source; some entries with a clear call stand among them for comparison. Calls come from the whole dose curve; as a rule, active = well fitted activation curve with a large enough effect; inconclusive = small, poorly fitted or top-dose-only effect; inactive = no such curve, though single readings can be large or run the other way. A potency beside an inconclusive call is a rough fit, not a confirmed value.

Test: qHTS Assay for Identifying a Potential Treatment of Ataxia-Telangiectasia; note: nearly all actives have a fitted effect of over 45% in size; for activation: % of control where 0% means no effect
Conditions: […] A-T fibroblasts, KAP-1 phosphorylation AlphaLISA, neocarzinostatin DNA damage 30 min before lysis; series mostly up to 57.5 µM; activation: at the top concentration
In short: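 hTERT-immortalized A-T patient fibroblasts ([…]), 500 cells/well in OPTI-MEM, 1% FBS, got compounds for 60 min, then NCS for 30 min at 37C. Lysates were then assayed for phospho-KAP-1 by AlphaLISA (anti-pKAP1 donor, anti-KAP1 acceptor beads), 6 hr at 25C.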
Potency is the fitted concentration of half-maximal effect.

| Structure (SMILES) | Potency | activation |
| --- | --- | --- |
| Cc1cccc(/C=C/C(=O)c2ccc([N+](=O)[O-])o2)c1 | inconclusive: 7.08 µM [activator, single point] |  |
| O=C(/C=C/c1ccnc2ccccc12)c1cccs1 | inconclusive: 39.8 µM [activator, single point] |  |
| C/C(=N\NC(=O)C1CC1)c1ccc(Cl)c(Cl)c1 | inconclusive: 1 µM [activator, full curve] |  |
| O=C(O)CSc1c2c(nc3cc(C(=O)NCCN4CCOCC4)ccc13)CCC2 | inconclusive: 39.8 µM [activator, single point] |  |
| COc1cc(/C=C2\C=CC(=O)O2)cc(OC)c1 | inconclusive: 0.631 µM [activator, partial curve, poor fit] |  |
| Cc1nnc(C)n1/N=C/c1ccc(-c2ccccc2)cc1 | inconclusive: 2.82 µM [activator, partial curve] |  |
| CCCCCCSc1ccc(-c2nc3ccccn3c2NCCCC)cc1 | active: 39.8 µM |  |
| CN(CC(=O)Nc1ccc(F)cc1)CC(=O)Nc1ccc(Cl)c(S(=O)(=O)N2CCOCC2)c1 | inconclusive: 39.8 µM [activator, single point] |  |
| NC(=O)c1ccc2nc(NC(=O)c3ccc(N)cc3)sc2c1 | active: 35.5 µM |  |
| CN(C(=O)c1cc2c(=O)n3ccccc3nc2n1C)C1CCCCC1 | inconclusive: 35.5 µM [activator, single point] |  |
| COc1ccc(NC(=O)NC2CCCc3ccccc32)c(OC)c1 (stereo not given) | inconclusive: 10 µM [activator, partial curve] |  |
| Cc1c(Cc2ccccc2)c(NCCCO)n2c(nc3ccccc32)c1C#N | inconclusive: 7.08 µM [activator, full curve] |  |
| CC(C)CN(C(=O)CSc1n[nH]c(-c2cccs2)n1)C1CCS(=O)(=O)C1 (stereo not given) |  | inactive: 16.5% |
| NS(=O)(=O)c1cccc(NC(=O)CSc2nnc(C3CC3)n2Cc2ccccc2)c1 |  | inactive: -15.4% |
| COC(=O)c1sc2ncn(N)c(=O)c2c1C | inconclusive: 3.16 µM [activator, partial curve] |  |
| Cc1ccccc1N1CCN(Cc2ccc(Br)o2)CC1 | inconclusive: 39.8 µM [activator, single point] |  |
| O=C(O)CCCC(=O)N1N=C(c2ccccc2)CC1c1cccs1 (stereo not given) | inconclusive: 0.708 µM [activator, full curve, poor fit] |  |
| Cc1ccc(C(C)C)c(OCCCN(C)Cc2ccccc2)c1 | active: 35.5 µM |  |
| Cc1ccsc1C(=O)OCC(=O)NC1CC1 | inconclusive: 35.5 µM [activator, single point] |  |
| CC(C)(C)OC(=O)NC(CNCc1ccccc1)Cc1ccccc1 (stereo not given) | inconclusive: 22.4 µM [activator, single point] |  |
| Cc1ccc(CCN2CC(C(=O)NCCCN3CCN(C)CC3)CC2=O)cc1 (stereo not given) | inconclusive: 39.8 µM [activator, single point] |  |
| COc1ccc(-c2ccnc3nc(N4CCOCC4)nn23)cc1 |  | inactive: 11.3% |
| O=C(Nc1cc(N2CCOCC2)ncn1)c1ccccc1 | inconclusive: 7.94 µM [activator, single point] |  |

Three entries from above, ordered by number of heavy atoms, largest number first.

| Structure (SMILES) | Potency | activation |
| --- | --- | --- |
| NS(=O)(=O)c1cccc(NC(=O)CSc2nnc(C3CC3)n2Cc2ccccc2)c1 |  | inactive: -15.4% |
| O=C(O)CCCC(=O)N1N=C(c2ccccc2)CC1c1cccs1 (stereo not given) | inconclusive: 0.708 µM [activator, full curve, poor fit] |  |
| COc1ccc(-c2ccnc3nc(N4CCOCC4)nn23)cc1 |  | inactive: 11.3% |

The results go on.

| Structure (SMILES) | Potency | activation |
| --- | --- | --- |
| O=[N+]([O-])c1ccc(-c2nc(NCc3cccnc3)c3ccccc3n2)cc1 | inconclusive: 7.94 µM [activator, full curve, poor fit] |  |
| Cc1cc(C)c(C(=O)COC(=O)c2c(C)noc2C)cc1C | inconclusive: 25.1 µM [activator, partial curve] |  |
| CC(C)(C)C1CCC2(CC1)SCC(=O)N2c1ccccc1 (stereo not given) | inconclusive: 10 µM [activator, partial curve] |  |
| CC1(C)CC(=O)C/C(=N/Nc2nc3ccccc3s2)C1 | inconclusive: 39.8 µM [activator, single point] |  |
| COc1ccccc1CNC(=O)c1cc2c(=O)[nH]c3ccccc3c2n1C | inconclusive: 3.16 µM [activator, partial curve] |  |
| COc1cc(NC(=O)c2c(F)c(F)c(OC)c(F)c2F)ccc1NC(=O)c1cccs1 |  | inactive: 14% |
| Brc1ccc2c(c1)[C@H]1OCC[C@H]1[C@@H](c1cccs1)N2 | inconclusive: 44.7 µM [activator, partial curve, poor fit] |  |
| CN(C)c1oc(/C=C/c2ccccc2)nc1C#N | inconclusive: 28.2 µM [activator, partial curve] |  |
| COc1ccc(/C=C/c2c(-c3ccc(OC)cc3)oc3cccnc23)cc1 | inconclusive: 11.2 µM [activator, partial curve] |  |
| CCCCNC(=O)C1CCCN1S(=O)(=O)c1cccc2nsnc12 (stereo not given) | inconclusive: 3.55 µM [activator, partial curve] |  |
| c1ccc2nc3c(nc2c1)OCC1CCCCN31 (stereo not given) | inconclusive: 0.708 µM [activator, full curve, poor fit] |  |
| CC(C)(C)c1ccc(OCc2cnc(Cl)s2)cc1 | inconclusive: 39.8 µM [activator, single point] |  |
| CCCn1c(N)c(C(=O)CSc2nc(C3CC3)n(-c3ccccc3)n2)c(=O)[nH]c1=O |  | inactive: -0.805% |
| COc1ccc2[nH]c(=O)c(CNc3cc(C)ccc3C)cc2c1 |  | inactive: 18.9% |
| COC(=O)c1cccc(NC(=O)Nc2ccc(Cl)cc2Cl)c1 | inconclusive: 31.6 µM [activator, partial curve] |  |
| O=S(=O)(Nc1cccc2cccnc12)c1ccccc1 | inconclusive: 28.2 µM [activator, single point] |  |
| COc1ccc(-c2nc(-n3c(C)c(C(C)=O)c(C(C)=O)c3C)sc2C)cc1 |  | inactive: -6.41% |
| Cc1ccc(-c2nc3cc(NC(=O)C(C)C)ccc3o2)cc1 |  | inactive: -0.615% |
| Cc1ccc(NC(=O)CN2c3cccc4cccc(c34)S2(=O)=O)cc1 | inconclusive: 12.6 µM [activator, single point] |  |
| CCCCCCc1cc2cc(S(=O)(=O)c3ccc(F)cc3)c(=O)oc2cc1O | active: 28.2 µM |  |
| COc1cccc(C(=O)N(Cc2ccccc2)Cc2cc3cc4c(cc3[nH]c2=O)OCCO4)c1 |  | inactive: 3.27% |
| CN(C)CCC1c2ccc(Cl)cc2CCc2cccnc21 (stereo not given) (tested in a mixture with another compound) | inconclusive: 7.94 µM [activator, partial curve] |  |
